# Test results as given in the supplement of paper PMC6411743.
# ± gives the standard deviation of the averaged measurements. This is a selection; strong and weak results do not stand in their true shares.
# Columns and labels:
# Experiment in all cases: NP40-soluble protein abundance relative to vehicle (solubility fold change) (ratio); higher = more soluble protein in presence of ATP
# [1] = molecular target: T1, ARL8A (UniProt Q96BM9)
# T1 sequence (whole entry): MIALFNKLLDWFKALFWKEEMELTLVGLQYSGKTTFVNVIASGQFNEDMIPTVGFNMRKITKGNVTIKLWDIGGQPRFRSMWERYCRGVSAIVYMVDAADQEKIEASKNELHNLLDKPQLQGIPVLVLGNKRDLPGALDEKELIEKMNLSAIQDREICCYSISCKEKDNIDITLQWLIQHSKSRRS
# Method in brief: (§1)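 Jurkat crude lysate prepared with a Dounce homogeniser was treated at eight concentrations spanning 0.1 to 10 mM, 10 min at room temperature then 3 min at 37 °C. Solubilisation with 0.8% NP40 and benzonase and ultracentrifugation preceded TMT labelling of the supernatant for LC-MS/MS. Fold change against the detergent-processed vehicle was determined per replicate from vsn-normalised intensities, across three independent experiments.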
# [2] = molecular target: T2, ATXN7L3B (UniProt Q96GX2)
# T2 sequence (whole entry): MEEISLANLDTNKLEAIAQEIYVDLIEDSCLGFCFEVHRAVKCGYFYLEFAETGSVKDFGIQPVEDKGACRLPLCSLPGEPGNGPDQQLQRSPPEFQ
# Method in brief: as §1
# [3] = molecular target: T3, C8orf37 (UniProt Q96NL8)
# T3 sequence (whole entry): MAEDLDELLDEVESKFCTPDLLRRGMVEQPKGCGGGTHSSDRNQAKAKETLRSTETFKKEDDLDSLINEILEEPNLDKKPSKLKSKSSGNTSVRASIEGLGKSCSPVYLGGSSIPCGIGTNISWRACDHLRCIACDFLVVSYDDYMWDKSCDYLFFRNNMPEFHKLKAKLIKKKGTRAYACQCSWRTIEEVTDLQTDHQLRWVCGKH
# Method in brief: as §1
# [4] = molecular target: T4, DDRGK1 (UniProt Q96HY6)
# T4 sequence (whole entry): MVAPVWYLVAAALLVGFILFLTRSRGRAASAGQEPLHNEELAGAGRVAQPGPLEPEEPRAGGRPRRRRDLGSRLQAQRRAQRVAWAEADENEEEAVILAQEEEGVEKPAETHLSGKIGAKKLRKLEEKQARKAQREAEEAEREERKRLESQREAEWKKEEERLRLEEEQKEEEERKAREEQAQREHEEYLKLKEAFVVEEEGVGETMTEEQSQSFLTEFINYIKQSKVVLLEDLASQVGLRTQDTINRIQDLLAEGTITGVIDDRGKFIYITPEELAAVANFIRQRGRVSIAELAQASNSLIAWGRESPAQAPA
# Method in brief: as §1
# [5] = molecular target: T5, DNAJC1 (UniProt Q96KC8)
# T5 sequence (whole entry): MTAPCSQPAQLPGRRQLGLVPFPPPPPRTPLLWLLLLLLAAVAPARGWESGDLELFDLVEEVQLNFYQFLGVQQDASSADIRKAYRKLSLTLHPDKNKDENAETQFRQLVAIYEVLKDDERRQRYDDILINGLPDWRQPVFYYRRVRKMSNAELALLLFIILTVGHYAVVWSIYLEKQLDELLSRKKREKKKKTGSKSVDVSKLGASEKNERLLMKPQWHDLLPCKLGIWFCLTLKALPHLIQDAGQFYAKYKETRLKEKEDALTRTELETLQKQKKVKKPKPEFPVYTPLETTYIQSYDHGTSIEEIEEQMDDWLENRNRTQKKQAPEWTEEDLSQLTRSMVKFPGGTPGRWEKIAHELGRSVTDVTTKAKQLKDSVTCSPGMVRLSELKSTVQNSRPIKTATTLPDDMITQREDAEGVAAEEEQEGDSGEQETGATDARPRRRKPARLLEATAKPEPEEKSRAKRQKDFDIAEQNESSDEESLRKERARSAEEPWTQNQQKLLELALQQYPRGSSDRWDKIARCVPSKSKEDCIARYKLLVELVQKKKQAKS
# Method in brief: as §1
# [6] = molecular target: T6, ISOC1 (UniProt Q96CN7)
# T6 sequence (whole entry): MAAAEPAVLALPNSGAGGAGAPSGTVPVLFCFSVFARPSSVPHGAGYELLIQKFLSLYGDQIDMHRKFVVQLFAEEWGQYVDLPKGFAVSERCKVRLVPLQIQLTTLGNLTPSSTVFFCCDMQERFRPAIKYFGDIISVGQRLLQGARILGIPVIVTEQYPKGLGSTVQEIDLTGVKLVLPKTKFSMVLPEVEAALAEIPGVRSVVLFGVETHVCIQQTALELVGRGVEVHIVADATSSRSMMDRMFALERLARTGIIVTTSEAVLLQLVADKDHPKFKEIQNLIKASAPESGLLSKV
# Method in brief: as §1
# [7] = molecular target: T7, MRRF (UniProt Q96E11)
# T7 sequence (whole entry): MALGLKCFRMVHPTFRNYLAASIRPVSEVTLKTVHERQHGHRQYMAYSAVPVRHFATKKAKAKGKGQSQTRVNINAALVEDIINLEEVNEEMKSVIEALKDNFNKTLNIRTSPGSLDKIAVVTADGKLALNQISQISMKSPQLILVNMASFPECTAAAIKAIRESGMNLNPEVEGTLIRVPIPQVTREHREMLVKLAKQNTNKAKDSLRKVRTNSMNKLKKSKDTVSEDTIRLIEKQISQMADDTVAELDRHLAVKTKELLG
# Method in brief: as §1
# [8] = molecular target: T8, NACC1 (UniProt Q96RE7)
# T8 sequence (whole entry): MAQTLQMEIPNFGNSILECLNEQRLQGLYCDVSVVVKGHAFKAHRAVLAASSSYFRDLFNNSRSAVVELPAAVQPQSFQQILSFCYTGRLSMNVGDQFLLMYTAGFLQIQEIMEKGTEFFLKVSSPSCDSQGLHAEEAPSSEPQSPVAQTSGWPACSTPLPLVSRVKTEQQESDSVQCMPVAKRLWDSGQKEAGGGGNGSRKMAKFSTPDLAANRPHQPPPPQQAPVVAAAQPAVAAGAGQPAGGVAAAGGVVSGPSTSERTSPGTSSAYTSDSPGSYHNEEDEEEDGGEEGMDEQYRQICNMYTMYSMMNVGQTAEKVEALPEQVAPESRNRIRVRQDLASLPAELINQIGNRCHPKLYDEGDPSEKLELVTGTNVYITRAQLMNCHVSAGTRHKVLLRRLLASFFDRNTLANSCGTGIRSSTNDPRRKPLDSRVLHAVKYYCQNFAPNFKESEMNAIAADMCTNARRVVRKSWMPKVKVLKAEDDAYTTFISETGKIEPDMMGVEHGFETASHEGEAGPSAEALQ
# Method in brief: as §1
# [9] = molecular target: T9, RBM17 (UniProt Q96I25)
# T9 sequence (whole entry): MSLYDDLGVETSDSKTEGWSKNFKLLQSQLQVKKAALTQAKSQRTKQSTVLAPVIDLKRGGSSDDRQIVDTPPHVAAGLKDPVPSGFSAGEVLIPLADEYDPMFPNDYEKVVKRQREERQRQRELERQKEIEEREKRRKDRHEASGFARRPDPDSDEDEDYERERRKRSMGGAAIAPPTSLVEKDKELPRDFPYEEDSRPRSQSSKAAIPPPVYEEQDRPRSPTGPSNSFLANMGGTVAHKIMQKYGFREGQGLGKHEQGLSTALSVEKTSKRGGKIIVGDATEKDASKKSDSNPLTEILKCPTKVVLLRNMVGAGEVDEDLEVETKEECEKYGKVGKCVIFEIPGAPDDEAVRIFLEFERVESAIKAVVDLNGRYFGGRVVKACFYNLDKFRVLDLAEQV
# Method in brief: as §1
# [10] = molecular target: T10, RUFY1 (UniProt Q96T51)
# T10 sequence (whole entry): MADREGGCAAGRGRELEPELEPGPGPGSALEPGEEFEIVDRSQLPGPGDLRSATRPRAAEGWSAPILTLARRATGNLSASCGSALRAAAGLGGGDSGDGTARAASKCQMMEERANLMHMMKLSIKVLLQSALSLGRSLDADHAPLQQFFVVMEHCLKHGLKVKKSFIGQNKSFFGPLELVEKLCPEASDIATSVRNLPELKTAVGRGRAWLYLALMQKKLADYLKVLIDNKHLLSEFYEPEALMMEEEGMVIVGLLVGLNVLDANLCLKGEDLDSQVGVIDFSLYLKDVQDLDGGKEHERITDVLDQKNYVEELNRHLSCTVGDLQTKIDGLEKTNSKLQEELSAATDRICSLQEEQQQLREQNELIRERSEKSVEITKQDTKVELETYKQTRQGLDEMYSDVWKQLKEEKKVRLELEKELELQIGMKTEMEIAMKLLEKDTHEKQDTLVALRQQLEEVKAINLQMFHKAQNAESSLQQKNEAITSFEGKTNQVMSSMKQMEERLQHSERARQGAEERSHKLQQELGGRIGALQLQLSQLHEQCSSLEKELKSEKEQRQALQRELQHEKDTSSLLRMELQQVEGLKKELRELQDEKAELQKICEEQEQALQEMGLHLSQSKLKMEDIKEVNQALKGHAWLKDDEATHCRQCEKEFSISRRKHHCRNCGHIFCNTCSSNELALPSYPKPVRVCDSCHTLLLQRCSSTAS
# Method in brief: as §1
smiles,measurement,setting,value
Nc1ncnc2c1ncn2[C@@H]1O[C@H](COP(=O)(O)OP(=O)(O)OP(=O)(O)O)[C@@H](O)[C@H]1O [adenosine triphosphate],NP40-soluble protein abundance,[1]; concentration: 1mM,1.01 ± 0.16
same,NP40-soluble protein abundance,[1]; concentration: 2mM,1.01 ± 0.14
same,NP40-soluble protein abundance,[1]; concentration: 4mM,0.989 ± 0.11
same,NP40-soluble protein abundance,[1]; concentration: 6mM,0.939 ± 0.14
same,NP40-soluble protein abundance,[1]; concentration: 8mM,0.997 ± 0.081
same,NP40-soluble protein abundance,[1]; concentration: 10mM,0.984 ± 0.082
same,NP40-soluble protein abundance,[2]; concentration: 1mM,0.911 ± 0.18
same,NP40-soluble protein abundance,[2]; concentration: 2mM,0.907 ± 0.13
same,NP40-soluble protein abundance,[2]; concentration: 4mM,0.889 ± 0.14
same,NP40-soluble protein abundance,[2]; concentration: 6mM,0.9 ± 0.21
same,NP40-soluble protein abundance,[2]; concentration: 8mM,0.902 ± 0.17
same,NP40-soluble protein abundance,[2]; concentration: 10mM,0.945 ± 0.15
same,NP40-soluble protein abundance,[3]; concentration: 1mM,0.898 ± 0.068
same,NP40-soluble protein abundance,[3]; concentration: 2mM,0.9994 ± 0.0078
same,NP40-soluble protein abundance,[3]; concentration: 4mM,0.839 ± 0.047
same,NP40-soluble protein abundance,[3]; concentration: 6mM,0.935 ± 0.081
same,NP40-soluble protein abundance,[3]; concentration: 8mM,0.8368 ± 0.0069
same,NP40-soluble protein abundance,[3]; concentration: 10mM,0.88 ± 0.039
same,NP40-soluble protein abundance,[4]; concentration: 1mM,1.01 ± 0.13
same,NP40-soluble protein abundance,[4]; concentration: 2mM,1.06 ± 0.088
same,NP40-soluble protein abundance,[4]; concentration: 4mM,1.09 ± 0.11
same,NP40-soluble protein abundance,[4]; concentration: 6mM,1.15 ± 0.1
same,NP40-soluble protein abundance,[4]; concentration: 8mM,1.12 ± 0.098
same,NP40-soluble protein abundance,[4]; concentration: 10mM,1.13 ± 0.071
same,NP40-soluble protein abundance,[5]; concentration: 1mM,0.993 ± 0.021
same,NP40-soluble protein abundance,[5]; concentration: 2mM,1 ± 0.03
same,NP40-soluble protein abundance,[5]; concentration: 4mM,0.998 ± 0.07
same,NP40-soluble protein abundance,[5]; concentration: 6mM,1.02 ± 0.049
same,NP40-soluble protein abundance,[5]; concentration: 8mM,0.945 ± 0.029
same,NP40-soluble protein abundance,[5]; concentration: 10mM,1 ± 0.021
same,NP40-soluble protein abundance,[6]; concentration: 1mM,0.976 ± 0.09
same,NP40-soluble protein abundance,[6]; concentration: 2mM,0.932 ± 0.027
same,NP40-soluble protein abundance,[6]; concentration: 4mM,0.943 ± 0.057
same,NP40-soluble protein abundance,[6]; concentration: 6mM,0.907 ± 0.089
same,NP40-soluble protein abundance,[6]; concentration: 8mM,0.936 ± 0.031
same,NP40-soluble protein abundance,[6]; concentration: 10mM,0.935 ± 0.036
same,NP40-soluble protein abundance,[7]; concentration: 1mM,0.97 ± 0.06
same,NP40-soluble protein abundance,[7]; concentration: 2mM,0.935 ± 0.06
same,NP40-soluble protein abundance,[7]; concentration: 4mM,0.929 ± 0.058
same,NP40-soluble protein abundance,[7]; concentration: 6mM,0.93 ± 0.036
same,NP40-soluble protein abundance,[7]; concentration: 8mM,0.906 ± 0.011
same,NP40-soluble protein abundance,[7]; concentration: 10mM,0.851 ± 0.11
same,NP40-soluble protein abundance,[8]; concentration: 1mM,0.947 ± 0.058
same,NP40-soluble protein abundance,[8]; concentration: 2mM,0.956 ± 0.045
same,NP40-soluble protein abundance,[8]; concentration: 4mM,0.932 ± 0.042
same,NP40-soluble protein abundance,[8]; concentration: 6mM,0.943 ± 0.074
same,NP40-soluble protein abundance,[8]; concentration: 8mM,0.911 ± 0.021
same,NP40-soluble protein abundance,[8]; concentration: 10mM,0.914 ± 0.025
same,NP40-soluble protein abundance,[9]; concentration: 1mM,1.15 ± 0.019
same,NP40-soluble protein abundance,[9]; concentration: 2mM,1.15 ± 0.039
same,NP40-soluble protein abundance,[9]; concentration: 4mM,1.18 ± 0.03
same,NP40-soluble protein abundance,[9]; concentration: 6mM,1.24 ± 0.043
same,NP40-soluble protein abundance,[9]; concentration: 8mM,1.28 ± 0.038
same,NP40-soluble protein abundance,[9]; concentration: 10mM,1.3 ± 0.042
same,NP40-soluble protein abundance,[10]; concentration: 1mM,0.9689 ± 0.0045
same,NP40-soluble protein abundance,[10]; concentration: 2mM,0.97 ± 0.019
same,NP40-soluble protein abundance,[10]; concentration: 4mM,0.9508 ± 0.0069
same,NP40-soluble protein abundance,[10]; concentration: 6mM,0.977 ± 0.029
same,NP40-soluble protein abundance,[10]; concentration: 8mM,0.9531 ± 0.0057
same,NP40-soluble protein abundance,[10]; concentration: 10mM,0.943 ± 0.024

# In another format: results already given.
smiles | measurement | setting | value
Nc1ncnc2c1ncn2[C@@H]1O[C@H](COP(=O)(O)OP(=O)(O)OP(=O)(O)O)[C@@H](O)[C@H]1O [adenosine triphosphate] | NP40-soluble protein abundance | [3]; concentration: 2mM | 0.9994 ± 0.0078
same | NP40-soluble protein abundance | [4]; concentration: 4mM | 1.09 ± 0.11
same | NP40-soluble protein abundance | [7]; concentration: 1mM | 0.97 ± 0.06
same | NP40-soluble protein abundance | [10]; concentration: 1mM | 0.9689 ± 0.0045
